# Experimental data as given in PubChem BioAssay AID1347426 (Functional Genomics Laboratory (NCATS/FGL), 2020).
# The campaign covered roughly 31,000 sequences. About 1,400 (4.5%) were called active.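 The calls were made as follows: active = median seed-adjusted z-score above 1 or below -1; inactive = the rest.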 The list shows a part of the results.
# Assay: Novel Modifiers of Survival Motor Neuron (SMN) Protein: Gene Identification via Genome-wide siRNA Screen;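 also: luminescence tracks full-length SMN protein made from the SMN2 reporter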
# Details: HEK293T SMN2-luciferase reporter, siRNA knockdown, 72 h; actives lie on both sides
# Method in brief: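 HEK293T cells stably carrying an SMN2 promoter/splicing cassette–luciferase reporter were reverse-transfected with 1 pmol siRNA per well (druggable-genome library, 3 siRNAs per gene) and grown 72 h at 37 °C. Luminescence, normalized to negative-control siRNA and log10-transformed, was scored as MAD.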
row,Sequence,median seed-adjusted z-score
1,AGAUAGCAGAGAGUCUUUUTT against NKIRAS2,inactive: 0.111
2,CGCUAUCCCAAUCGCUUUATT against CYB5R1,inactive: 0
3,GCCUCGAAGUGCCUCUAUATT against DNAJB11,inactive: -0.0495
4,AGAGCAUGCAGGUACCCUUTT against CCL1,inactive: 0.537
5,ACGUAGGCGGCAUCAAGUATT against KCNG1,inactive: -0.00995
6,CUAACGUAGAGGAAGCAUUTT against RAB11B,inactive: -0.857
7,GGAAUUCGGUGAUGUAUGATT against CACNA1C,inactive: 0
8,GCAUGUGGGCAGAACAAAATT against GHRH,inactive: -0.16
9,GGGUUACAGAGUCAGCGAATT against CACNB4,inactive: -0.223
10,CGCCCAUAUUCUUAUGAAATT against ADRB2,inactive: 0.0987
11,CAGAGGUUCUCAGACCGGATT against CASP9,inactive: -0.0982
12,UGAUCAUCCGGACUCCAUATT against HDAC8,inactive: 0.835
13,CUGAGUCCAUUGUCCUAUATT against BCO2,inactive: -0.183
14,GGUGAGAUGUCGUACACCATT against CYP4X1,inactive: 0.546
15,GGUGGACUCAGAUCACAGUTT against PEF1,inactive: 0.651
16,CAUACCUACCGGCUCAUUATT against USP26,inactive: -0.0505
17,AAGCUUUAAGAGUCAUUUATT against CDKN1C,inactive: -0.0497
18,UGAGUAAACUGAUUCCUAATT against ITGB7,inactive: 0.443
19,CGUGACCUGUAUUUGAAAATT against AMPD3,inactive: -0.0865
20,GGCUAGAUGAGUGUCAGAUTT against ST6GALNAC4,inactive: -0.39
21,GGACGAACGAAGGACUAUUTT against FNBP1L,inactive: -0.0815
22,CUGUAGCAAUUGGAGUAAATT against WRN,inactive: -0.00482
23,CCAAGACUCUUUGUACUCATT against PDE4D,inactive: 0

row,Sequence,median seed-adjusted z-score
1,CGAGAUGCCGGUACUUAAATT against RASSF2,inactive: -0.649
2,ACUACAUCGUUAUUUUCUATT against FOXD4L1,inactive: 0.271
3,GCAGAGACCUACAAAAAGATT against RCN3,active: -2.44
4,CCAUUACAUUAUAAGAGUUTT against PPIG,inactive: -0.0192
5,GCCCAGUACAAAUUCUUCATT against RNASE6,inactive: 0.832
6,GCCCUGAUUUGAAGGGAAATT against AIF1,inactive: -0.0293
7,CAUUAGCAAUUGUAGCAAUTT against TMPRSS11F,inactive: -0.289
8,CGAAUACAAGAACGCAGAATT against KLRC2,inactive: -0.472
9,GCACCCGUGUGGUUGCUAATT against PTTG1,inactive: -0.459
10,GGGUAUUUUGAUUUCCGAATT against PGBD1,inactive: 0.925
11,GCUAUAUCAGGAUGAGAUATT against ATG5,inactive: -0.0597
12,AGAAUCUGUUCACCGCAAATT against RFPL1,inactive: 0.195
13,CGAUCGGAAUGUAUACCCATT against SGCE,inactive: 0.202
14,GGAUAUAAACCAGUAUGGATT against ZMIZ1,inactive: -0.382
15,GGACACUUUUAGUUAAGAATT against STK17A,inactive: 0
16,CGACCUUAAACGUAUAGUATT against CFI,inactive: -0.596
17,GCGUAAGAAUGACCGCCUATT against COPG,inactive: 0.175
18,GAAUGAGGCAUAUCAAGCATT against TUBD1,inactive: -0.00491
19,GCCGUUUCAUGUUUGUCUATT against TRPV1,inactive: -0.12
20,CAGUCCUACAGGUUCAUCATT against PIP5K1C,inactive: -0.13
21,GGUAAAGGGAAGUAACUAUTT against SLC2A13,inactive: -0.0451
22,AGAACGUGCUCUUCGCUCATT against PRKAR1B,inactive: -0.0406
23,GGAUAGUGAUGAUGUCUAUTT against GPR98,inactive: -0.509

row,Sequence,median seed-adjusted z-score
1,GCAAGCAUACGUCAAUGUATT against GTF3C5,inactive: 0.493
2,CGGACUUUCAGAUCCCUAUTT against SYT4,inactive: -0.354
3,CCCUUCGAGUGAAGAAGAATT against STYXL1,inactive: -0.311
4,CCACGGCAAGUUAAAAUCATT against CD84,inactive: 0.629
5,GGUUGAUCACAGACGAUUATT against CYP2R1,inactive: -0.981
6,CCUGUGAUAUUGGAACCUUTT against SYT14,inactive: 0.0794
7,GGCCUUCACCAACAGCAAATT against DNASE1L3,inactive: 0.0678
8,GGACGGCAUGACUAUCAAATT against SART3,inactive: 0
9,CGACUAUGCUUUAGAUUAUTT against MAS1,inactive: -0.0551
10,GGAUUGCCGGGUACUACUATT against GPR132,inactive: 0
11,CUGCCUAUGUUUAUUCGUATT against VPS13B,inactive: 0
12,UCAUCACCGUGUCCAAUCATT against TAZ,inactive: 0.0549
13,AGGACUUCGAGAAAGCAUATT against PSMC4,inactive: -0.361
14,CCGACUCUCUGAUACUGCATT against UNC5C,inactive: 0.0496
15,GGCGAAAUCAGCUUCCAGGTT against CALML5,inactive: -0.175
16,CCUUACCACGAAACCCAAATT against ING5,inactive: -0.193
17,GCAGAGAUCAGCAACGUGATT against KRT77,inactive: -0.0863
18,ACAAAAAGGAUGCACCUGUTT against NTHL1,inactive: 0.364
19,GCACGACUGUUACUGGACUTT against POLRMT,inactive: 0.0812
20,CAAAUCAUCAGAUCACUAATT against SPTLC3,inactive: 0.279
21,CAAGAAGUCAUAUUGAGAATT against ZNF430,inactive: 0.681
22,CAGCUGAAAUGUACGACAATT against SGK1,inactive: -0.659

# 3 neighbouring entries from above:
row,Sequence,median seed-adjusted z-score
17,AAGCUUUAAGAGUCAUUUATT against CDKN1C,inactive: -0.0497
18,UGAGUAAACUGAUUCCUAATT against ITGB7,inactive: 0.443
19,CGUGACCUGUAUUUGAAAATT against AMPD3,inactive: -0.0865
